Results taken from article PMC5741625, “Methylation-regulated decommissioning of multimeric PP2A complexes” (Nature Communications, 2017).
Results are given in words; binding and its absence hold for the method and conditions named. Binding seen in cells or lysates may run through a third protein. Some entries that bind do so weakly or less than the wild type. Sequences can lack the tags named with a protein.

By UniProt entry, the sequences of proteins in these tests, tags left out. Where a name states a change or a piece, a line headed by the entry shows the natural chain unless it says otherwise.
UniProt P67775: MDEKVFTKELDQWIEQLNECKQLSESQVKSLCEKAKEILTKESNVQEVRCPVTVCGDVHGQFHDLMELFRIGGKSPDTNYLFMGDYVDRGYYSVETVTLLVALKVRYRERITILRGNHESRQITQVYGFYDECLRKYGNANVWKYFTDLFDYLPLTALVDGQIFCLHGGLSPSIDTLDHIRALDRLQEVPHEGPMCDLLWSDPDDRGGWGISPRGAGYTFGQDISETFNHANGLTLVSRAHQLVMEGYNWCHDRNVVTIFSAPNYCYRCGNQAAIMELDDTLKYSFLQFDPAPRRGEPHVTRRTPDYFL

target: T1, Flag-tagged human TIPRL, wild type (human) (UniProt O75663); assay: co-IP; 293T cells co-transfected with Flag-TIPRL and V5-PP2Ac; anti-FLAG affinity gel; western blot
T1 sequence: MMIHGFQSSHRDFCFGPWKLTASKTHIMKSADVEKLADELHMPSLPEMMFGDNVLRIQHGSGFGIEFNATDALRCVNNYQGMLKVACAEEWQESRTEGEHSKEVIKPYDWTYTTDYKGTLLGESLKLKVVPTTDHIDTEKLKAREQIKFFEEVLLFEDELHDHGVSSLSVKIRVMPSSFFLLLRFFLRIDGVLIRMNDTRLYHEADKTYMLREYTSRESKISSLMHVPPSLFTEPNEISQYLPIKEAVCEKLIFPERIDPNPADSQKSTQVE

| Substance | binding |
| --- | --- |
| V5-tagged human PP2Ac α isoform, wild type (from UniProt P67775 1-309) (enzyme) | binds |
| V5-tagged human PP2Ac with deletion of residue L309 (from UniProt P67775 1-309) (enzyme) | no binding |
| V5-tagged human PP2Ac Y307E (from UniProt P67775 1-309) (enzyme) | no binding |
